Measurements reported in publication PMC8466577.
Results are given in words; binding and its absence hold for the method and conditions named. In cells and extracts the contact can be indirect. Some results given as binding are weak or reduced against the parent protein; the word gives no strength.

Amino acid sequences for entries named in this document (tags omitted).
UniProt Q8NI27: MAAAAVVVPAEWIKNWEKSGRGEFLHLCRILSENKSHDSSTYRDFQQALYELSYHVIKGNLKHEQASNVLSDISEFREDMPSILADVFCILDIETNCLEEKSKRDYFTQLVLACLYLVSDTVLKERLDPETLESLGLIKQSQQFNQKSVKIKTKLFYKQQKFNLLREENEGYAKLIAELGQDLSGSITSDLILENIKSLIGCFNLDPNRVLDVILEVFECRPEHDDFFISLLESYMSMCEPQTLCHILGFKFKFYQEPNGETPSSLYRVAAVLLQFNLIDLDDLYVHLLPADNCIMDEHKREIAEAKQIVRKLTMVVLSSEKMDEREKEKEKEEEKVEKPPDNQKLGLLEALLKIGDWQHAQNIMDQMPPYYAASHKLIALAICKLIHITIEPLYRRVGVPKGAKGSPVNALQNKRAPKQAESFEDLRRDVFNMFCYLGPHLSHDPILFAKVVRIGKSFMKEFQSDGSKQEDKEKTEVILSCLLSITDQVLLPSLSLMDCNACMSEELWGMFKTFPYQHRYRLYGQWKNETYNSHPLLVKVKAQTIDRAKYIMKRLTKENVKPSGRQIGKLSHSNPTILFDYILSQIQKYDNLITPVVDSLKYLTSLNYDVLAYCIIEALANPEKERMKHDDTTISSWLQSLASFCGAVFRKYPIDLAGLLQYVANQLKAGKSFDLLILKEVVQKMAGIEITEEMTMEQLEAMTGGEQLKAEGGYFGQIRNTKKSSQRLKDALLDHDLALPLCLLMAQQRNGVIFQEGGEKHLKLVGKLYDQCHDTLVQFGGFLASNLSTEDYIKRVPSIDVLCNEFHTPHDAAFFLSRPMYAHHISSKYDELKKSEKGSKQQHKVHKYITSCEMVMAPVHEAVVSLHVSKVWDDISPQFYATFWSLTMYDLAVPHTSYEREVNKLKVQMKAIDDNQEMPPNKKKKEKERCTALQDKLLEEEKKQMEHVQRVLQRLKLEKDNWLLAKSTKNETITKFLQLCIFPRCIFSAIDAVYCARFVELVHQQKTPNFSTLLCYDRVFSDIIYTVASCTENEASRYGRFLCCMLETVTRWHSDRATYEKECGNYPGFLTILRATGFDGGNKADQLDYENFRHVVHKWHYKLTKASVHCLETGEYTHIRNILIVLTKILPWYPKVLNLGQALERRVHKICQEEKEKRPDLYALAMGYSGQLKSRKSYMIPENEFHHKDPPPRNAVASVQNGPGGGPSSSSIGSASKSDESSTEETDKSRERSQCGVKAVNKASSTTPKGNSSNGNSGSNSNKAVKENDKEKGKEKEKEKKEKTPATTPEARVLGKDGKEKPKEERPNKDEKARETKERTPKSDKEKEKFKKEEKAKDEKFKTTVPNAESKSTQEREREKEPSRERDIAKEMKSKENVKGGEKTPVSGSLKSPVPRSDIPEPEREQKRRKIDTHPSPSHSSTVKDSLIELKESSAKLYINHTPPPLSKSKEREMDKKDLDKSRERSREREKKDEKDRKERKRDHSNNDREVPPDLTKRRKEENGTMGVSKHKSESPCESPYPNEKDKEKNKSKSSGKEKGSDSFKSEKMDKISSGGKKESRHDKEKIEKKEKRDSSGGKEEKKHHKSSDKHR

Biological target: THOC2 (human (endogenous in SKOV-3 and PC-3)) (UniProt Q8NI27)
Assay: co-IP; small-scale IPs from PC-3 lysates (1 mg protein) with antibodies to THOC5, THOC2 or RAB11 on Protein G-Dynal beads, normal rabbit IgG as control; Western blot for THOC5, THOC2, SEPT2, SEPT7, RAB11, HMGB1

| binding | Binder |
| --- | --- |
| binds | SEPT7 (protein, UniProt Q16181 1-437) MSVSARSAAAEERSVNSSTMVAQQKNLEGYVGFANLPNQVYRKSVKRGFEFTLMVVGESGLGKSTLINSLFLTDLYSPEYPGPSHRIKKTVQVEQSKVLIKEGGVQLLLTIVDTPGFGDAVDNSNCWQPVIDYIDSKFEDYLNAESRVNRRQMPDNRVQCCLYFIAPSGHGLKPLDIEFMKRLHEKVNIIPLIAKADTLTPEECQQFKKQIMKEIQEHKIKIYEFPETDDEEENKLVKKIKDRLPLAVVGSNTIIEVNGKRVRGRQYPWGVAEVENGEHCDFTILRNMLIRTHMQDLKDVTNNVHYENYRSRKLAAVTYNGVDNNKNKGQLTKSPLAQMEEERREHVAKMKKMEMEMEQVFEMKVKEKVQKLKDSEAELQRRHEQMKKNLEAQHKELEEKRRQFEDEKANWEAQQRILEQQNSSRTLEKNKKKGKIF |
| binds | SEPT2 (protein, UniProt Q15019 1-361) MSKQQPTQFINPETPGYVGFANLPNQVHRKSVKKGFEFTLMVVGESGLGKSTLINSLFLTDLYPERVIPGAAEKIERTVQIEASTVEIEERGVKLRLTVVDTPGYGDAINCRDCFKTIISYIDEQFERYLHDESGLNRRHIIDNRVHCCFYFISPFGHGLKPLDVAFMKAIHNKVNIVPVIAKADTLTLKERERLKKRILDEIEEHNIKIYHLPDAESDEDEDFKEQTRLLKASIPFSVVGSNQLIEAKGKKVRGRLYPWGVVEVENPEHNDFLKLRTMLITHMQDLQEVTQDLHYENFRSERLKRGGRKVENEDMNKDQILLEKEAELRRMQEMIARMQAQMQMQMQGGDGDGGALGHHV |
